For 38 molecules, cell number change and AC50 results are on record in PubChem BioAssay AID2685 (National Center for Advancing Translational Sciences (NCATS), 2010).

For orientation: AC50 means the concentration giving half of the maximal activity seen. Low readings indicate activity at low concentration, high ones activity only at high concentration.

The experiment in a line: qHTS Assay for Lipid Storage Modulators in Drosophila S3 Cells.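 As to cell number change: cells counted by Cell Tracker Red CMTPX staining in the red channel.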 The settings on record: BODIPY lipid droplet fluorescence, 18-24 h; for cell number change: measured here: cell count max response, cells fed with added oleic acid. An outline of the steps: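 Drosophila S3 cells loaded with oleic acid (400 uM, as added) and compounds at several concentrations; lipid droplets imaged by 488-nm laser-scanning cytometry, 500–530 nm intensity and object ratio to cell channel. Percent activity normalized to 20 uM Triacsin C.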

Where [1] appears, read: measured here: lipid fluorescence (Fed channel) AC50, cells fed with added oleic acid.
Where [2] appears, read: measured here: cell number channel AC50, cells fed with added oleic acid.

The other results are listed elsewhere or left out. Further columns of the screen follow, without active or inactive calls. The list favours compounds with an active or inconclusive main result. Potencies come from curve fits of mixed quality, noted in brackets.

Take `CCOC(=O)C1(Cc2cccc(F)c2)CCN(CCCn2cccn2)CC1`: the cell number change amounted to 12.7%. Turning to `O=C(O)c1ccc2c(c1)C(=O)N([C@@H](Cc1ccc(O)cc1)C(=O)O)C2=O`, the cell number change was found to be 2.14%. Also, under setting [1], the concentration at half-maximal activity (AC50) was 25.9 µM [falling, single point]. With `Cc1nn(-c2ccccn2)c2c1C(c1ccncc1)C1=C(CC(C)(C)CC1=O)N2` (centres undefined), the concentration at half-maximal activity (AC50) is 1.16 µM [rising, partial curve] under setting [2] and 2.31 µM [rising, partial curve] under setting [1]. As to `Cc1cc2ncc(-c3ncc(C(F)(F)F)cc3Cl)cn2n1`, the cell number change is 31%. Also, under setting [2], the half-maximal activity concentration (AC50) is 6.51 µM [rising, partial curve, poor fit]. On to `COC(=O)c1ccc2c(=O)n(CCN3CCOCC3)c(SCC(=O)c3ccccc3)nc2c1`, for which the cell number change was found to be 11.8%. Also, the AC50 under setting [1] was 16.4 µM [rising, single point].

For the molecule `COc1ccc2c3n([n+]([O-])c2c1)CCN=C3c1cc(Cl)c(N)c(Cl)c1`, the cell number change turned out to be 19.5%. In addition, under setting [1], the half-maximal activity concentration (AC50) is 0.00651 µM [rising, full curve, poor fit]. As to `CCc1nn(CC(=O)NCCc2ccc(Cl)cc2)c(=O)c2cccn12`, the cell number change is -2.36%. In addition, the AC50 under setting [1] is 6.51 µM [rising, partial curve]. As to `CCN1C(=O)[C@H]2[C@@H](c3ccc(-c4ccc(Cl)c(Cl)c4)cc3)N[C@@](CC(C)C)(C(=O)OC)[C@H]2C1=O`, the cell number change stood at 1.45%. Also, under setting [1], the AC50 is 0.0731 µM [falling, partial curve, poor fit].

On to `COc1ccccc1NS(=O)(=O)c1ccc2oc(SC)nc2c1`, for which the cell number change was -1.28%. Besides, the AC50 under setting [1] was 6.51 µM [rising, partial curve]. Turning to `CCn1c2c(c(=N)c3ccccc31)CCC2`, the cell number change is -7.37%. On to `Cc1cnc(NC(=O)CCCNC(=O)c2ccc(Cl)cc2)s1`, for which the cell number change was -17.9%. The AC50 under setting [1] is 0.0259 µM [falling, full curve]. As for `COc1cc(-c2cn[nH]c2N)cc(OC)c1OC`, the cell number change came out at 29.5%. In addition, under setting [2], the AC50 was 3.66 µM [rising, full curve, poor fit]. Further, the AC50 under setting [1] is 0.731 µM [falling, single point]. For `CCNNC(=O)C(O)(c1cccc(C)c1)c1cccc(C)c1`, the cell number change is 10.1%. Besides, the AC50 under setting [1] is 0.461 µM [rising, full curve, poor fit]. Consider `CCn1cc(C(=O)O)c(=O)c2cnc(N3CCN(C(=S)NC(=O)c4ccc(Cl)cc4Cl)CC3)nc21`, for which the cell number change is -5.71%. Also, under setting [1], the AC50 was 6.51 µM [rising, single point]. `CN1CCN(NC(=O)c2ccc(F)cc2)CC1`: the half-maximal activity concentration (AC50) under setting [1] is 0.291 µM [falling, full curve, poor fit].

In the case of `Cc1ccc(CSCCNC(=O)CN2C(=O)c3ccccc3S2(=O)=O)cc1`, the cell number change was -4.19%. Same read-out and setting: in the case of `O=C(O)C/C(=C\c1cc(Br)cs1)c1nc2ccccc2o1` it was 22.9%. For `Cc1nn(-c2ccc(Cl)cc2)c(N)c1C(O)(CSc1nccn1C)C(F)(F)F` (centres undefined), the cell number change amounted to 71.4%. In addition, the concentration at half-maximal activity (AC50) under setting [2] was 1.64 µM [rising, full curve]. Besides, under setting [1], the AC50 was 5.17 µM [rising, single point].

As for `COc1ccc(-n2c(SCC(=O)Nc3ccccc3)nnc2-c2ccc(NS(=O)(=O)c3ccc(C)cc3)cc2)cc1`, the half-maximal activity concentration (AC50) under setting [2] was 1.03 µM [rising, full curve, poor fit].

Take `COCCCNC(=S)N1CCN(c2nc(C)nc3sc4c(c23)CCCC4)CC1`: the cell number change is -0.702%. For the molecule `CCOc1ccc(S(=O)(=O)Nc2ccc(C(=O)NCCCN3CCOCC3)cc2)cc1`, the cell number change was -5.5%. In the case of `O=C(O)c1cccc(NC(=O)c2cccc(NC(=O)C3CCCO3)c2)c1` (centres undefined), the cell number change was -43.3%. Besides, the half-maximal activity concentration (AC50) under setting [2] was 25.9 µM [falling, single point]. Also, under setting [1], the half-maximal activity concentration (AC50) is 25.9 µM [falling, single point]. `O=C(Nn1nnnc1Nc1ccccc1)C12CC3CC(CC(C3)C1)C2`: the cell number change is -54%. Besides, the half-maximal activity concentration (AC50) under setting [2] is 29.1 µM [falling, single point]. For the same molecule, the half-maximal activity concentration (AC50) under setting [1] was 29.1 µM [falling, single point]. `Cc1cc(C)c2c(CN3CCN(Cc4ccccc4)CC3)cc(=O)oc2c1C`: the cell number change is 29.8%. Besides, under setting [1], the AC50 was 16.4 µM [rising, partial curve, poor fit]. For the molecule `COCCN(C(=O)COC(=O)c1c(NC(C)=O)sc(C)c1C)c1c(N)n(Cc2ccccc2)c(=O)[nH]c1=O`, the cell number change came to 8.16%. Further, under setting [1], the AC50 is 18.4 µM [falling, single point]. Take `CC(=O)c1c(C)nc(C)nc1NC(=O)C(C)C`: the cell number change is -24.1%. Moreover, under setting [1], the AC50 is 0.116 µM [falling, full curve, poor fit]. On to `O=S1(=O)c2ccccc2N=NN1Cc1ccc(Cl)cc1`, for which the cell number change worked out at 8.91%. Under setting [1], the concentration at half-maximal activity (AC50) is 0.58 µM [falling, single point]. For `O=C(CCc1nnc(CCCCc2ccccc2)o1)NCc1cccc(F)c1`, the cell number change is -14.8%. The AC50 under setting [1] was 7.31 µM [falling, partial curve]. Consider `CCC(=O)Nc1ccc(C(=O)COC(=O)c2nc3nccc(C)n3n2)cc1`, for which the cell number change was 1.2%.

As to `Cc1nc(Nc2ccc3c(c2)OCCO3)c2nnn(Cc3ccccc3Cl)c2n1`, the cell number change turned out to be 66.9%. For the same molecule, the concentration at half-maximal activity (AC50) under setting [2] is 1.46 µM [rising, full curve]. Moreover, under setting [1], the half-maximal activity concentration (AC50) was 0.651 µM [rising, full curve]. `Cc1ccc(C)c2[nH]c(=O)c(C(c3nnnn3C3CCCC3)N3CCOCC3)cc12` (centres undefined): the cell number change was 32.2%. In addition, under setting [2], the AC50 is 0.0651 µM [rising, full curve]. Also, the half-maximal activity concentration (AC50) under setting [1] is 4.11 µM [rising, full curve, poor fit]. For `COc1ccc(NC(=O)CSc2cn[nH]n2)cc1OC`, the cell number change was -12.7%. `COc1ccc(NC(=O)CSc2nc(O)cc(=O)n2-c2ccccc2OC)cc1`: the cell number change is -61.3%. The AC50 under setting [2] is 20.6 µM [falling, single point]. Moreover, the concentration at half-maximal activity (AC50) under setting [1] was 8.2 µM [falling, full curve]. As for `CC(NC(=O)COc1ccc([N+](=O)[O-])cc1)c1ccccc1` (centres undefined), the cell number change stood at 21.5%. Regarding `Cc1cc(C)cc(NC(=O)COc2ccc(C(=S)N3CCOCC3)cc2)c1`, the cell number change came out at 36.7%. In addition, the AC50 under setting [1] was 23.1 µM [rising, single point]. As for `Cc1ccc(CC(=O)NNC(=O)c2cccs2)cc1C`, the cell number change was -99.5%. Further, under setting [2], the concentration at half-maximal activity (AC50) is 29.1 µM [falling, single point]. On to `Oc1ccc(/C=N/Nc2nc(-c3cccnc3)nc3ccccc23)c(O)c1`, for which the cell number change was -57%. Further, under setting [2], the half-maximal activity concentration (AC50) was 20.6 µM [falling, partial curve]. For the same molecule, the AC50 under setting [1] is 20.6 µM [falling, partial curve, poor fit]. In the case of `COc1ccc(OC)c(-n2c(SCC(N)=O)nnc2-c2c[nH]c3ccccc23)c1`, the cell number change is 38.9%. Further, the AC50 under setting [2] was 11.6 µM [rising, partial curve]. Also, under setting [1], the AC50 was 11.6 µM [rising, partial curve].
